# Primary screen of a compound library

By UniProt entry, the sequences of proteins in these tests, tags left out. Residues count along the entry.
UniProt P9WFT3, whole entry: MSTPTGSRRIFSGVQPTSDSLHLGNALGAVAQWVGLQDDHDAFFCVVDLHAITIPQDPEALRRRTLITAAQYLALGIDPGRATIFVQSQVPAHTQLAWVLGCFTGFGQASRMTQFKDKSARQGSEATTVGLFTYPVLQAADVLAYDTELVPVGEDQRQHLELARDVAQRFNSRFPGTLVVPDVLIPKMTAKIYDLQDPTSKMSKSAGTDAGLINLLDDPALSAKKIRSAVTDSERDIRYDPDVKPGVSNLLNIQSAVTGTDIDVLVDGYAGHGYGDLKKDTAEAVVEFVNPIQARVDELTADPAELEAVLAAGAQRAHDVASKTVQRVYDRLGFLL
UniProt P9WNZ1, whole entry: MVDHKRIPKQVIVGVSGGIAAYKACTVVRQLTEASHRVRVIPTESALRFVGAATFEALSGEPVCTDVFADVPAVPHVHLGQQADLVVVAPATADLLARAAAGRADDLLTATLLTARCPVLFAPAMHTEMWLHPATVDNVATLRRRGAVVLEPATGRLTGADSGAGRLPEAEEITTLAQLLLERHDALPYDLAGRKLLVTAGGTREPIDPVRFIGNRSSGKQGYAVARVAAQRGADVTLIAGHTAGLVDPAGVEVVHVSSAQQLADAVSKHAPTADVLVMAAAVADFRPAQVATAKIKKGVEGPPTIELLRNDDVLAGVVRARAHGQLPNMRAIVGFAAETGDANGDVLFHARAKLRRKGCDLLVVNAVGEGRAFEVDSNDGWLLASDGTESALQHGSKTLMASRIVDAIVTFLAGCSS
UniProt A4I591, 1-473: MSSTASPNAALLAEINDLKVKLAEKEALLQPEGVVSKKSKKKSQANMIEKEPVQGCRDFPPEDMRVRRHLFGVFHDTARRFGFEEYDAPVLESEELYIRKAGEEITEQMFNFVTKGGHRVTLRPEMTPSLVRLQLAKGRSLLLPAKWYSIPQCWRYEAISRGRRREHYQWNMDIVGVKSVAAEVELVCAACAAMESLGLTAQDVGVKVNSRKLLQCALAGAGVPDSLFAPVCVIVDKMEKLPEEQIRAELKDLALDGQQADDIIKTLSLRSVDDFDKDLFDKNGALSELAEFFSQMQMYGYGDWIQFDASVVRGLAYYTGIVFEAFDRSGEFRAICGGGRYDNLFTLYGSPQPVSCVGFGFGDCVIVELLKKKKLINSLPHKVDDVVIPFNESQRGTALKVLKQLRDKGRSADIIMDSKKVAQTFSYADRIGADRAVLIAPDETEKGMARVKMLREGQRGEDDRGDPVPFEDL
UniProt I6X8D2, whole entry: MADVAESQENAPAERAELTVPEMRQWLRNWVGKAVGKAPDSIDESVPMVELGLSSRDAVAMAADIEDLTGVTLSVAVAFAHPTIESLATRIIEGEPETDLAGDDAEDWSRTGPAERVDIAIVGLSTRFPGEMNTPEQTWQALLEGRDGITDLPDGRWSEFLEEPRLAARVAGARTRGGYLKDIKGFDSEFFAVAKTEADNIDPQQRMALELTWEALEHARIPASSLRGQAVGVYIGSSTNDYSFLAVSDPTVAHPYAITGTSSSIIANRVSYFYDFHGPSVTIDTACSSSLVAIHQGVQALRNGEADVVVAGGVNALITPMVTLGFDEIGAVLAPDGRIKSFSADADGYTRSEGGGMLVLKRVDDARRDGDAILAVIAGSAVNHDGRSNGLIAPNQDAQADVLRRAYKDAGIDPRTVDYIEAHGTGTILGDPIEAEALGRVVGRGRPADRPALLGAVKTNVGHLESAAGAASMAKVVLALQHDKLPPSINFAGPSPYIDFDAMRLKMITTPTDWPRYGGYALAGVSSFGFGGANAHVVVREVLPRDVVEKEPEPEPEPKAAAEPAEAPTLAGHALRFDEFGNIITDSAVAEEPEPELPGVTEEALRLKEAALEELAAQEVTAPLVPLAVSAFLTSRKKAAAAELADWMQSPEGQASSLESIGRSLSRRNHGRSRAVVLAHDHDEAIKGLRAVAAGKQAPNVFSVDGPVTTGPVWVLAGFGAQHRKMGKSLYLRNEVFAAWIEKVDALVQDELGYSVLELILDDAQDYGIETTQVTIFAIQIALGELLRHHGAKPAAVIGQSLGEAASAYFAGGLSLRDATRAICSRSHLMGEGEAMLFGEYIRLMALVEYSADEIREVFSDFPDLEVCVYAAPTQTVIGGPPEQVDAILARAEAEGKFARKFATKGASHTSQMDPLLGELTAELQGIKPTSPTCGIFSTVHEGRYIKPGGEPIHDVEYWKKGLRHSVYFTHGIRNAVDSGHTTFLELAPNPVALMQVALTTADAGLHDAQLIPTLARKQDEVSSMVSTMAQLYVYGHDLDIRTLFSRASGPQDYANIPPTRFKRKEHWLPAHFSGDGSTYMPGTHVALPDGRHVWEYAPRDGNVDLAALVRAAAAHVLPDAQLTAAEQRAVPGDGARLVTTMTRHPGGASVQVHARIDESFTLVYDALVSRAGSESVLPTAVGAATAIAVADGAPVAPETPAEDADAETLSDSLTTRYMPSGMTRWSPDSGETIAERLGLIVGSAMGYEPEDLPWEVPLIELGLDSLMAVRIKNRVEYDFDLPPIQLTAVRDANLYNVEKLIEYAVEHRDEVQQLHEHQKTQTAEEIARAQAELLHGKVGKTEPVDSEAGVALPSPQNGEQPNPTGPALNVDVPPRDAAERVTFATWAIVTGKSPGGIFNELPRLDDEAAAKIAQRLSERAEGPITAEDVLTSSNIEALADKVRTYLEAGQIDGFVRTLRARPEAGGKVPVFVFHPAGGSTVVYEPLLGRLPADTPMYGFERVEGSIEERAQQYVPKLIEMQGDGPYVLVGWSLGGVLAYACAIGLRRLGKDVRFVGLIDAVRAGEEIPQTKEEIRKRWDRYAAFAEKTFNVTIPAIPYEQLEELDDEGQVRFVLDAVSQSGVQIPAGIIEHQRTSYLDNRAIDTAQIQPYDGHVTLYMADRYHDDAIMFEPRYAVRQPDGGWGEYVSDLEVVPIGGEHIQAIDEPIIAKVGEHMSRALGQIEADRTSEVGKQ

Data taken from ChEMBL document CHEMBL3988442, “University of Dundee, Small-Polar-MMV Screening Library” (2021).

MtTrpRS: 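Enzyme assay of tryptophanyl-tRNA synthetase; the read-out is not stated. Target: Tryptophan-tRNA ligase, Mycobacterium tuberculosis (UniProt P9WFT3). Compounds at 10 µM. Higher most likely means stronger inhibition; the record gives no direction and few retests gave an IC50. Size under these conditions: about 65,000 compounds, about 64 of them at 50% or above in at least one test.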
CoaBC: 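Coenzyme A biosynthesis protein CoaBC, Mycobacterium tuberculosis (UniProt P9WNZ1). Enzyme assay of CoaBC with a phosphate dye (Biomol Green) read at 650 nm. Tested at 30 µM. Higher reads as stronger inhibition, judged from the few compounds that gave an IC50. Most strong results did not repeat in a second test. Size under these conditions: about 67,000 compounds, about 40 of them at 50% or above in at least one test.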
LiHisRS: 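Histidine-tRNA ligase, Leishmania infantum (UniProt A4I591). Enzyme assay of histidyl-tRNA synthetase; the read-out is not stated. Compounds at 30 µM. Higher reads as stronger inhibition (inferred: compounds with an IC50 in retests scored well above the rest). The assay is labelled LdHisRS but filed under L. infantum. Size under these conditions: about 69,000 compounds, about 410 of them at 50% or above in at least one test.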
Pks13 thioesterase: 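Enzyme assay of the thioesterase domain of polyketide synthase 13; the read-out is not stated. Target: Polyketide synthase Pks13, Mycobacterium tuberculosis (UniProt I6X8D2). Tested at 30 µM. Higher reads as stronger inhibition (inferred from which compounds were picked for retests). Of about 67,000 compounds tested this way, about 300 (0.46%) reached 50% or more in at least one test.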

Each number is a percent effect as filed. The controls that fix the scale are not given in the record; negative values are as filed. Compounds were drawn at random from those tested, without regard to their results. A dash means the value is not listed here; it may have been measured.

| structure | MtTrpRS | CoaBC | LiHisRS | Pks13 thioesterase |
|---|---|---|---|---|
| `CC(C)(C)c1cn2nc(N3CCC[C@@H]3CO)sc2n1` | 2.301 | -0.5181 | 14.89 | -16.39 |
| `Cc1ccccc1S(=O)(=O)CCOC(C)C` | 14.3 | 4.39 | 12.61 | 7.901 |
| `COc1ccc(Cl)cc1C(=O)N1CCOC2(CNCCOC2)C1` (stereo not given) | 0.0774 | -4.051 | 11.54 | -20.91 |
| `COCCN1CCN(Cc2ccc(C(C)=O)cc2)[C@H]2CS(=O)(=O)C[C@H]21` | 4.86 | 10.32 | 22.22 | -1.661 |
| `Cc1nc(C2CCCN(C(=O)c3ccc(OCC4CC4)nc3)C2)no1` (stereo not given) | -7.263 | -0.894 | 8.036 | 1.709 |
| `Cc1cc(-c2cnc(N3CCNC(=O)C3)nc2-c2ccoc2C)on1` | - | 1.363 | 36 | 9.907 |
| `CSCC(=O)N1CCCN(c2ccncc2C)CC1` | 0.2694 | 3.758 | 11.29 | -21.9 |
| `Cc1cc(C)nc(N2CCOC(C)(C(=O)N(C)C)C2)n1` (stereo not given) | 4.137 | 9.557 | 7.092 | 0.2044 |
| `CC(C)NC(=O)NCc1cc(-c2ccco2)n(CC(F)(F)F)n1` | - | 0.1205 | 22.86 | - |
| `Nc1nc(C2CCN(C(=O)c3cnccn3)CC2)cs1` | - | -4.358 | 4.124 | -26.31 |
| `Cc1cn(CCn2ccnc2-c2sccc2C)nn1` | -3.259 | -2.101 | 11.11 | -5.748 |
| `CSCC(CCO)NC(=O)c1cccc(C)c1Cl` (stereo not given) | 2.305 | 0.3797 | 7.5 | -7.335 |
| `CC(c1ccc(F)cc1F)N1CCN(CCC(=O)O)CC1` (stereo not given) | 1.069 | 15.75 | 11.67 | -16.87 |
| `Cc1n[nH]c(C(=O)N2CCCC(C)CC2)c1Br` (stereo not given) | -2.562 | 9.011 | 17.14 | -8.582 |
| `COC1(CNC(=O)NCCOc2ccccc2)CCSC1` (stereo not given) | 5.033 | 2.799 | 12.82 | -5.924 |
| `Cc1cc(N2CCC(c3nccn3Cc3cscn3)CC2)ccn1` | -2.344 | 1.028 | 2.083 | -21.95 |
| `Cc1nc(C)c(CC(=O)N2C[C@@H](C(=O)O)[C@H](c3ccncc3)C2)s1` | -3.144 | 3.738 | 14.47 | -9.79 |
| `CO[C@@H]1CCN(Cc2ccoc2)[C@@H]2CN(Cc3ccco3)C[C@@H]21` | 1.521 | 8.271 | 15.38 | 24.24 |
| `CC(C)C(c1cccnc1)N(C)C(=O)Cc1ccc(O)cc1` (stereo not given) | -6.861 | -2.941 | -2.564 | 10.64 |
| `CCC1CCCCN1C(=O)Cn1nc(-c2cc(C)oc2C)cc(N)c1=O` (stereo not given) | -9.763 | -2.959 | 18.31 | 19.15 |
| `CSc1nccn1-c1cccc(C(=O)NCc2nnc(C)n2C)c1` | 6.14 | 6.177 | 22.73 | -4.464 |
| `Cc1ccc(N2CCC3(CC2)CCN(C2CCOCC2)CC3)nn1` | -2.891 | -12.08 | 12.82 | -10.71 |
| `O=S(=O)(C1CC1)N1CCOCC2(CCN(c3ccccn3)C2)C1` (stereo not given) | 5.829 | 3.634 | -7.767 | -13.69 |
| `O=C(N1CCCC1)N1CCC[C@]2(C[C@@H](Oc3ncccc3F)CO2)C1` | 2.102 | -2.096 | 4.839 | 0.6991 |
| `CN(C)C(=O)CS(=O)(=O)Cc1cc(Cl)c2c(c1)OCO2` | -0.8772 | 7.179 | -4.545 | -9.271 |
| `Cc1ccc(C2CCCCCN2Cc2cn(C)nc2C)s1` (stereo not given) | 2.756 | 2.662 | 20.39 | -14.02 |
| `Cc1ccc(CNC(=O)Nc2nncs2)n1C` | 0.273 | 7.631 | 13.43 | -16.39 |
| `CN1CCN(CC(NCc2cccc(O)c2)c2ccccc2)CC1` (stereo not given) | 2.81 | -3.562 | 12.82 | - |
| `Cc1nc(CN2CCCN(C(=O)c3cccn3C)CC2)cs1` | 3.389 | 1.238 | 16 | -6.883 |
| `CN(C)C(=O)CO[C@H]1COCCN(C2CCOCC2)C1` | 0.6865 | 8.841 | 29.73 | -27.36 |
| `CNS(=O)(=O)CCCN(C)Cc1cc(C)ccc1OC` | 2.731 | 3.283 | 18.42 | -20.79 |
| `CCOc1nnc(CN(CC)CC(=O)NC(C)(C)C)s1` | 2.968 | 0.3367 | 11.7 | -1.795 |
| `CCN(C(=O)Nc1nccs1)C(C)c1cccc(O)c1` (stereo not given) | 3.166 | 4.436 | 3.797 | -41.53 |
| `COCCN1CCn2cc(CN(C)Cc3ccco3)nc2C1` | -0.3791 | 2.101 | 11 | -5.904 |
| `COCCN1CCCC2(CCN(c3cccc(C(F)(F)F)n3)C2)C1=O` (stereo not given) | 0.09139 | 4.839 | 1.316 | -22.5 |
| `CN1CCCC1CCNC(=O)Nc1ccccc1` (stereo not given) | - | 0.9709 | 7.921 | 15.46 |
| `CCCc1cc(C(=O)N(Cc2cccnc2)C[C@@H]2CCC(=O)N2)no1` | 0.6192 | - | 17.5 | -35.5 |
| `NCCc1cc(N2CCOCC2)nc(NC2CC2)n1` | 1.632 | 0 | 13.99 | 1.993 |
| `Cc1ccc(Cl)cc1NC(=O)Cn1cc(C(=O)O)ccc1=O` | 8.913 | -6.638 | 6.667 | 12.15 |
| `O=C(NS(=O)(=O)c1ccc(F)c(F)c1)c1cscn1` | -3.527 | -4.208 | 2 | -16.11 |
| `CCCS(=O)(=O)NC1CCN(c2cccc(F)c2C#N)CC1` | -0.5439 | 3.671 | 22.89 | 20.63 |
| `Cc1cc(CNC(=O)Nc2ccc(C(=O)NC3CC3)cc2)no1` | 0.6353 | -3.571 | 8.036 | -14.12 |
| `COCCn1cc(NCc2c[nH]nc2C(C)(C)C)cn1` | -0.5482 | -4.89 | 35.48 | 10.15 |
| `CCCc1n[nH]c(C2CN(C(=O)CCCn3ccnc3C)CCO2)n1` (stereo not given) | -1.577 | -0.5741 | 12.39 | -4.41 |
| `C[C@@H]1CN(S(=O)(=O)N2CCCCCC2)C[C@@]1(O)C1CCC1` | 1.727 | 4.54 | 7.843 | 10.69 |
| `CCCc1cc(C(=O)N(C)Cc2cccc3ncccc23)n(C)n1` | -6.711 | 12.73 | 8.491 | -27.09 |
| `COc1cccc(OC2CN(C(=O)c3ccoc3C)C2)c1` | -1.917 | 1.908 | 8.602 | -19.17 |
| `CN1CCCN(C(=O)NCc2csc(Br)c2)CC1` | -2.43 | 3.035 | 15.38 | -5.471 |
| `O=C(CCCn1cncn1)N1CCCC1c1noc(C2CC2)n1` (stereo not given) | -2.756 | -5.974 | 11.54 | -19.4 |
| `Cc1cc(C(=O)N2CCNC(=O)CC2)c(C)n1CC(F)(F)F` | 0.4112 | 15.58 | 17.65 | -26.58 |
| `Cc1ccnc(SCC(=O)Nc2csc3nc(=O)c(C)nn23)n1` | -2.644 | -1.574 | -1.087 | -23.89 |
| `C[C@@H]1CN(CCC(=O)NCc2ccccc2Cl)C[C@@]1(O)C1CC1` | 3.249 | -7.582 | 12.86 | -23.7 |
| `Cc1nc(C)n(CC2CCCN2CCc2ccncc2)n1` (stereo not given) | 8.112 | 4.604 | -1.835 | -20.01 |

The last 6 entries again:

structure,MtTrpRS,CoaBC,LiHisRS,Pks13 thioesterase
CN1CCCN(C(=O)NCc2csc(Br)c2)CC1,-2.43,3.035,15.38,-5.471
O=C(CCCn1cncn1)N1CCCC1c1noc(C2CC2)n1 (stereo not given),-2.756,-5.974,11.54,-19.4
Cc1cc(C(=O)N2CCNC(=O)CC2)c(C)n1CC(F)(F)F,0.4112,15.58,17.65,-26.58
Cc1ccnc(SCC(=O)Nc2csc3nc(=O)c(C)nn23)n1,-2.644,-1.574,-1.087,-23.89
C[C@@H]1CN(CCC(=O)NCc2ccccc2Cl)C[C@@]1(O)C1CC1,3.249,-7.582,12.86,-23.7
Cc1nc(C)n(CC2CCCN2CCc2ccncc2)n1 (stereo not given),8.112,4.604,-1.835,-20.01